Measured values reported in article PMC12032075.
No constants are given. Whether binding was seen depends on the method and setting. Binding seen in cells or lysates may run through a third protein. Some entries that bind do so weakly or less than the wild type.

Sequences of proteins named here, by UniProt entry; tags and fusion partners are left off.
UniProt Q14457: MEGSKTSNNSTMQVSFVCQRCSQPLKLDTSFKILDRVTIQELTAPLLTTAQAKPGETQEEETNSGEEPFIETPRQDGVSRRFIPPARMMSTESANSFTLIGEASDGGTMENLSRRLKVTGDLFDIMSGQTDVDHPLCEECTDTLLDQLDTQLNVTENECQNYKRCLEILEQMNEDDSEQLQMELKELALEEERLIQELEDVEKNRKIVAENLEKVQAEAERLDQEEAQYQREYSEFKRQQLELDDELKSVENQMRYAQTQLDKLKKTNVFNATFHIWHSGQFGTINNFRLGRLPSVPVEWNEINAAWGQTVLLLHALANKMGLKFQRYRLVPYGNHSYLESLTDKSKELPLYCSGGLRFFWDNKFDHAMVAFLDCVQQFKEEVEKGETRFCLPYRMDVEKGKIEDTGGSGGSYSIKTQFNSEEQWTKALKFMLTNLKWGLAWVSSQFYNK

Biological target: T1, USP19 (human (endogenous in LoVo and SW480)) (UniProt O94966)
T1 sequence: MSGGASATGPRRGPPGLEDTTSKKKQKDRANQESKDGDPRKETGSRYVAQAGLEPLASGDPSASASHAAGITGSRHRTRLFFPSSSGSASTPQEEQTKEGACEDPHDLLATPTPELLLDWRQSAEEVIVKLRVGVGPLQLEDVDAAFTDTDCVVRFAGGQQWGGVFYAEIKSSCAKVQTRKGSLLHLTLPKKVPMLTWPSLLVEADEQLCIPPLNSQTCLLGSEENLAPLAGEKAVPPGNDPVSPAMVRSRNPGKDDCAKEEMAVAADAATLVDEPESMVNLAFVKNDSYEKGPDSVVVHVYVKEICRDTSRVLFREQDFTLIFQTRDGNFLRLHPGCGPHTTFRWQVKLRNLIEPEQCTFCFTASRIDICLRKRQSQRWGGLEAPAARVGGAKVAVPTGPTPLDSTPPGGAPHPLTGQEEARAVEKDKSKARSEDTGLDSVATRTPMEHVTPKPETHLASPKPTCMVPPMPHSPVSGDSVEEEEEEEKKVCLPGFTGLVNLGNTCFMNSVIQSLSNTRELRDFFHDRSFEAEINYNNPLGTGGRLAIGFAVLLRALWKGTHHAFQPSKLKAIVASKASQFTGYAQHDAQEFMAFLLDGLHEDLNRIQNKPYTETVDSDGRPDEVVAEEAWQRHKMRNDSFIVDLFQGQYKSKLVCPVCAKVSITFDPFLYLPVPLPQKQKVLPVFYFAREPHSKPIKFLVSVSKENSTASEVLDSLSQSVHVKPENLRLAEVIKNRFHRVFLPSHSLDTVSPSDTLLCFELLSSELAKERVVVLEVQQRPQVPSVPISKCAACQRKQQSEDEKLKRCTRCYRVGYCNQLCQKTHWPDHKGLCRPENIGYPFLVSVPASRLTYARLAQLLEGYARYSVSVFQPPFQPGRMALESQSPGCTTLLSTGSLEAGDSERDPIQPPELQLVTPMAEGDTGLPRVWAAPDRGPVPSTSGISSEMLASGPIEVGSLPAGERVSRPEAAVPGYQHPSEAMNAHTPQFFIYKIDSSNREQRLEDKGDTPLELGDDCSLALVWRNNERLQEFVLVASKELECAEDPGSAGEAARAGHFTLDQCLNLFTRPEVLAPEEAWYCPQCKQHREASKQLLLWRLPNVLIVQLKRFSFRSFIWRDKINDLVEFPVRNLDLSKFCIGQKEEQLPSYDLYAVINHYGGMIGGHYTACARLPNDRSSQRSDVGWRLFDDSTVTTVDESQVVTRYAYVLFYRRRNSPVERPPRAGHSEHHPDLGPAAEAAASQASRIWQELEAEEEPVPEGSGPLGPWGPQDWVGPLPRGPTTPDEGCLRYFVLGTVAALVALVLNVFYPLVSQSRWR
Assay: co-IP; proteins precipitated using USP19 from LoVo and SW480 cells, Beclin1 detected; no IP method printed

## Beclin1 (from UniProt Q14457 1-450)
  binding: binds
